# From the supplement of paper PMC8728848
# This is one part of the list.
# Legend:
# Test in all cases: glycan array binding signal (z-score within array); higher = stronger binding
# Details in all cases: glycan notation: IUPAC condensed, linker removed
# [1] = target: Neu5Ac(a2-3)Gal(b1-4)GlcNAc(b1-6)GalNAc
# Method in brief: (§1)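 Negative Z-scores can be read as non-binding. The Z-score is calculated within each array and then averaged across arrays of one protein sequence at different concentrations or buffers and across linkers. Arrays, 3228 in all, were curated from the Consortium for Functional Glycomics database and kept only where the protein sequence was available.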
# [2] = target: Neu5Ac(a2-3)Gal(b1-4)GlcNAc(b1-6)[Gal(b1-3)]GalNAc
# Method in brief: as §1
# [3] = target: Neu5Ac(a2-3)Gal(b1-4)GlcNAc(b1-6)[Neu5Ac(a2-3)Gal(b1-3)]GalNAc
# Method in brief: as §1
# [4] = target: Neu5Ac(a2-3)Gal(b1-4)GlcNAc6S
# Method in brief: as §1
# [5] = target: Neu5Ac(a2-3)Gal(b1-4)[Fuc(a1-3)]GlcNAc
# Method in brief: as §1
# [6] = target: Neu5Ac(a2-3)Gal(b1-4)[Fuc(a1-3)]GlcNAc(b1-2)Man
# Method in brief: as §1
# [7] = target: Neu5Ac(a2-3)Gal(b1-4)[Fuc(a1-3)]GlcNAc(b1-3)Gal
# Method in brief: as §1
# [8] = target: Neu5Ac(a2-3)Gal(b1-4)[Fuc(a1-3)]GlcNAc(b1-3)Gal(b1-4)GlcNAc
# Method in brief: as §1
# [9] = target: Neu5Ac(a2-3)Gal(b1-4)[Fuc(a1-3)]GlcNAc(b1-3)Gal(b1-4)[Fuc(a1-3)]GlcNAc(b1-3)Gal(b1-4)[Fuc(a1-3)]GlcNAc
# Method in brief: as §1
# [10] = target: Neu5Ac(a2-3)Gal(b1-4)[Fuc(a1-3)]GlcNAc(b1-3)GalNAc
# Method in brief: as §1
# [11] = target: Neu5Ac(a2-3)Gal(b1-4)[Fuc(a1-3)]GlcNAc(b1-6)[Gal(b1-3)]GalNAc
# Method in brief: as §1
# [12] = target: Neu5Ac(a2-3)Gal(b1-4)[Fuc(a1-3)]GlcNAc(b1-6)[Neu5Ac(a2-3)Gal(b1-3)]GalNAc
# Method in brief: as §1
# [13] = target: Neu5Ac(a2-3)Gal(b1-4)[Fuc(a1-3)]GlcNAc6S
# Method in brief: as §1
# [14] = target: Neu5Ac(a2-3)Gal6S(b1-4)GlcNAc
# Method in brief: as §1
# [15] = target: Neu5Ac(a2-3)Gal6S(b1-4)[Fuc(a1-3)]GlcNAc
# Method in brief: as §1
# Neu5Ac(a2-3)GalNAc = target: Neu5Ac(a2-3)GalNAc
# Method in brief: as §1
# [16] = target: Neu5Ac(a2-3)GalNAc(b1-4)GlcNAc
# Method in brief: as §1
# [17] = target: Neu5Ac(a2-3)[GalNAc(b1-4)]Gal(b1-4)Glc
# Method in brief: as §1
# [18] = target: Neu5Ac(a2-3)[GalNAc(b1-4)]Gal(b1-4)GlcNAc
# Method in brief: as §1
# [19] = target: Neu5Ac(a2-3)[GalNAc(b1-4)]Gal(b1-4)GlcNAc(b1-3)GalNAc
# Method in brief: as §1
# [20] = target: Neu5Ac(a2-3)[Neu5Ac(a2-6)]GalNAc
# Method in brief: as §1
# Neu5Ac(a2-6)Gal = target: Neu5Ac(a2-6)Gal
# Method in brief: as §1
# [21] = target: Neu5Ac(a2-6)Gal(b1-3)GlcNAc(b1-3)[Gal(b1-4)GlcNAc(b1-6)]Gal(b1-4)Glc
# Method in brief: as §1
# Neu5Ac(a2-6)Gal(b1-4)Glc = target: Neu5Ac(a2-6)Gal(b1-4)Glc
# Method in brief: as §1
# [22] = target: Neu5Ac(a2-6)Gal(b1-4)GlcNAc
# Method in brief: as §1
# [23] = target: Neu5Ac(a2-6)Gal(b1-4)GlcNAc(b1-2)Man
# Method in brief: as §1
# [24] = target: Neu5Ac(a2-6)Gal(b1-4)GlcNAc(b1-2)Man(a1-3)Man(b1-4)GlcNAc(b1-4)GlcNAc
# Method in brief: as §1
# [25] = target: Neu5Ac(a2-6)Gal(b1-4)GlcNAc(b1-2)Man(a1-3)[Gal(b1-4)GlcNAc(b1-2)Man(a1-6)]Man(b1-4)GlcNAc(b1-4)GlcNAc
# Method in brief: as §1
# [26] = target: Neu5Ac(a2-6)Gal(b1-4)GlcNAc(b1-2)Man(a1-3)[GlcNAc(b1-2)Man(a1-6)]Man(b1-4)GlcNAc(b1-4)GlcNAc
# Method in brief: as §1
# [27] = target: Neu5Ac(a2-6)Gal(b1-4)GlcNAc(b1-2)Man(a1-3)[GlcNAc(b1-4)][Neu5Ac(a2-6)Gal(b1-4)GlcNAc(b1-2)Man(a1-6)]Man(b1-4)GlcNAc(b1-4)GlcNAc
# Method in brief: as §1
# [28] = target: Neu5Ac(a2-6)Gal(b1-4)GlcNAc(b1-2)Man(a1-3)[Man(a1-6)]Man(b1-4)GlcNAc(b1-4)GlcNAc
# Method in brief: as §1
# [29] = target: Neu5Ac(a2-6)Gal(b1-4)GlcNAc(b1-2)Man(a1-3)[Neu5Ac(a2-3)Gal(b1-4)GlcNAc(b1-2)Man(a1-6)]Man(b1-4)GlcNAc(b1-4)GlcNAc
# Method in brief: as §1
# [30] = target: Neu5Ac(a2-6)Gal(b1-4)GlcNAc(b1-2)Man(a1-3)[Neu5Ac(a2-6)Gal(b1-4)GlcNAc(b1-2)Man(a1-6)]Man(b1-4)GlcNAc(b1-4)GlcNAc
# Method in brief: as §1
# [31] = target: Neu5Ac(a2-6)Gal(b1-4)GlcNAc(b1-2)Man(a1-3)[Neu5Ac(a2-6)Gal(b1-4)GlcNAc(b1-2)Man(a1-6)]Man(b1-4)GlcNAc(b1-4)[Fuc(a1-6)]GlcNAc
# Method in brief: as §1
# [32] = target: Neu5Ac(a2-6)Gal(b1-4)GlcNAc(b1-2)Man(a1-6)Man(b1-4)GlcNAc(b1-4)GlcNAc
# Method in brief: as §1
# [33] = target: Neu5Ac(a2-6)Gal(b1-4)GlcNAc(b1-2)Man(a1-6)[Gal(b1-4)GlcNAc(b1-2)Man(a1-3)]Man(b1-4)GlcNAc(b1-4)GlcNAc
# Method in brief: as §1
# [34] = target: Neu5Ac(a2-6)Gal(b1-4)GlcNAc(b1-2)Man(a1-6)[GlcNAc(b1-2)Man(a1-3)]Man(b1-4)GlcNAc(b1-4)GlcNAc
# Method in brief: as §1
# [35] = target: Neu5Ac(a2-6)Gal(b1-4)GlcNAc(b1-2)Man(a1-6)[Man(a1-3)]Man(b1-4)GlcNAc(b1-4)GlcNAc
# Method in brief: as §1
# [36] = target: Neu5Ac(a2-6)Gal(b1-4)GlcNAc(b1-2)[Neu5Ac(a2-6)Gal(b1-4)GlcNAc(b1-4)]Man(a1-3)[GlcNAc(b1-4)][Neu5Ac(a2-6)Gal(b1-4)GlcNAc(b1-2)[Neu5Ac(a2-6)Gal(b1-4)GlcNAc(b1-6)]Man(a1-6)]Man(b1-4)GlcNAc(b1-4)GlcNAc
# Method in brief: as §1
# [37] = target: Neu5Ac(a2-6)Gal(b1-4)GlcNAc(b1-2)[Neu5Ac(a2-6)Gal(b1-4)GlcNAc(b1-4)]Man(a1-3)[GlcNAc(b1-4)][Neu5Ac(a2-6)Gal(b1-4)GlcNAc(b1-4)Man(a1-6)]Man(b1-4)GlcNAc(b1-4)GlcNAc
# Method in brief: as §1
# [38] = target: Neu5Ac(a2-6)Gal(b1-4)GlcNAc(b1-2)[Neu5Ac(a2-6)Gal(b1-4)GlcNAc(b1-6)]Man(a1-6)[Neu5Ac(a2-6)Gal(b1-4)GlcNAc(b1-2)Man(a1-3)][GlcNAc(b1-4)]Man(b1-4)GlcNAc(b1-4)GlcNAc
# Method in brief: as §1
# [39] = target: Neu5Ac(a2-6)Gal(b1-4)GlcNAc(b1-3)Gal(b1-3)GlcNAc
# Method in brief: as §1
# [40] = target: Neu5Ac(a2-6)Gal(b1-4)GlcNAc(b1-3)Gal(b1-4)GlcNAc
# Method in brief: as §1
# [41] = target: Neu5Ac(a2-6)Gal(b1-4)GlcNAc(b1-3)Gal(b1-4)GlcNAc(b1-2)Man(a1-3)[Neu5Ac(a2-6)Gal(b1-4)GlcNAc(b1-3)Gal(b1-4)GlcNAc(b1-2)Man(a1-6)]GalNAc
# Method in brief: as §1
# [42] = target: Neu5Ac(a2-6)Gal(b1-4)GlcNAc(b1-3)Gal(b1-4)GlcNAc(b1-3)Gal(b1-4)GlcNAc
# Method in brief: as §1
# [43] = target: Neu5Ac(a2-6)Gal(b1-4)GlcNAc(b1-3)Gal(b1-4)GlcNAc(b1-3)Gal(b1-4)GlcNAc(b1-2)Man(a1-3)[Neu5Ac(a2-6)Gal(b1-4)GlcNAc(b1-3)Gal(b1-4)GlcNAc(b1-3)Gal(b1-4)GlcNAc(b1-2)Man(a1-6)]GalNAc
# Method in brief: as §1
binder,measurement,setting,value
RobpsCRA (Robinia pseudoacacia) (protein) IKGGYWYSGSGLAVSDINPSHFTHLFCAFADLDPNTNKLTISSSNAAAFSTFTQTVRAKNPSVKTLLSIGGGGGRALAAVFANMASQASRRKSFIDSSIQLARRNNFHGLDLDWEYPSSDIDKTNFASLIREWRAAVATESSTSGTPALLLSAAVGGSDQITPLKYYPGEAIANNLDWVNVMTYDLYTSDSYPTLTQPPAPLFYPRGIFSADEGITKWIQSGVPESKLALGLPFYGFKWRLSDPNNHGLFAPATQGLGAVKYKDIVNTGGQVEFDSTYVTNYCFKGTDWYGYDDTQSISAKVAYAKQRGLFGYFAWHIEQDSNWALS,glycan array binding signal (z-score),[1],0.15
same,glycan array binding signal (z-score),[2],0.267
same,glycan array binding signal (z-score),[3],-0.478
same,glycan array binding signal (z-score),[4],-0.216
same,glycan array binding signal (z-score),[5],-0.946
same,glycan array binding signal (z-score),[6],-0.889
same,glycan array binding signal (z-score),[7],-0.054
same,glycan array binding signal (z-score),[8],0.659
same,glycan array binding signal (z-score),[9],0.269
same,glycan array binding signal (z-score),[10],1.49
same,glycan array binding signal (z-score),[11],0.26
same,glycan array binding signal (z-score),[12],0.155
same,glycan array binding signal (z-score),[13],0.731
same,glycan array binding signal (z-score),[14],-0.785
same,glycan array binding signal (z-score),[15],-0.829
same,glycan array binding signal (z-score),Neu5Ac(a2-3)GalNAc,-0.955
same,glycan array binding signal (z-score),[16],-0.437
same,glycan array binding signal (z-score),[17],0.349
same,glycan array binding signal (z-score),[18],-0.008
same,glycan array binding signal (z-score),[19],0.012
same,glycan array binding signal (z-score),[20],-0.017
same,glycan array binding signal (z-score),Neu5Ac(a2-6)Gal,1.23
same,glycan array binding signal (z-score),[21],-0.187
same,glycan array binding signal (z-score),Neu5Ac(a2-6)Gal(b1-4)Glc,-0.332
same,glycan array binding signal (z-score),[22],-0.55
same,glycan array binding signal (z-score),[23],0.007
same,glycan array binding signal (z-score),[24],-0.468
same,glycan array binding signal (z-score),[25],0.444
same,glycan array binding signal (z-score),[26],-0.307
same,glycan array binding signal (z-score),[27],0.988
same,glycan array binding signal (z-score),[28],-0.608
same,glycan array binding signal (z-score),[29],-0.519
same,glycan array binding signal (z-score),[30],0.343
same,glycan array binding signal (z-score),[31],0.574
same,glycan array binding signal (z-score),[32],-0.79
same,glycan array binding signal (z-score),[33],-0.048
same,glycan array binding signal (z-score),[34],-0.328
same,glycan array binding signal (z-score),[35],1.67
same,glycan array binding signal (z-score),[36],0.638
same,glycan array binding signal (z-score),[37],-0.365
same,glycan array binding signal (z-score),[38],0.772
same,glycan array binding signal (z-score),[39],0.116
same,glycan array binding signal (z-score),[40],-0.168
same,glycan array binding signal (z-score),[41],0.109
same,glycan array binding signal (z-score),[42],-0.505
same,glycan array binding signal (z-score),[43],1.18

# An excerpt of these results, with bars between the fields:
binder | measurement | setting | value
RobpsCRA (Robinia pseudoacacia) (protein) IKGGYWYSGSGLAVSDINPSHFTHLFCAFADLDPNTNKLTISSSNAAAFSTFTQTVRAKNPSVKTLLSIGGGGGRALAAVFANMASQASRRKSFIDSSIQLARRNNFHGLDLDWEYPSSDIDKTNFASLIREWRAAVATESSTSGTPALLLSAAVGGSDQITPLKYYPGEAIANNLDWVNVMTYDLYTSDSYPTLTQPPAPLFYPRGIFSADEGITKWIQSGVPESKLALGLPFYGFKWRLSDPNNHGLFAPATQGLGAVKYKDIVNTGGQVEFDSTYVTNYCFKGTDWYGYDDTQSISAKVAYAKQRGLFGYFAWHIEQDSNWALS | glycan array binding signal (z-score) | Neu5Ac(a2-6)Gal | 1.23
same | glycan array binding signal (z-score) | [37] | -0.365
